Experimental data as given in US20130338033A1, “Diagnostic and Prognostic Markers for Metastasis” (VIRGINIA COMMONWEALTH UNIVERSITY, priority 2011, published 2013).
For at least one compound, name, drawing or mass did not settle the structure.

Columns and labels:
Type in all cases: cell-based, human
HIF-1α = HIF-1α expression by Western blotting in FM-516 cells infected with Ad.5/3-mda-9; settings: Ad.5/3-mda-9, 2.5 μM inhibitor, 12 or 24 h (FIG. 4D)
VEGF-A = VEGF-A expression in HuVECs (real-time PCR, ELISA); settings: HuVECs pre-treated with LY294002 (30 min), then rhIGFBP-2; ELISA in CM (FIG. 5D)
Procedure: FIG. 5A-G. IGFBP-2 upregulates the expression of vascular endothelial growth factor (VEGF-A) through the AKT pathway in HuVECs. a) The expression of VEGF-A mRNA (top panel) and protein (bottom panel) were measured by real-time PCR and ELISA, respectively, after treating HuVECs with the indicated doses of rhIGFBP-2. Data represents Mean±S.D. b) HuVECs were transfected with VEGF-A promoter luciferease reporter plasmid and treated with the indicated concentrations of rhIGFBP-2. 48 h after transfection, cells were harvested for luciferase assays as described in Materials and Methods. c) HuVECs (1×10^6 cells) were treated or untreated with the specified doses of rhIGFBP-2 for the indicated times and expression of pAKT and AKT was analyzed by Western blotting. d) HuVECs were pre-treated with LY294002 (30 min) and then treated with rhIGFBP-2. Top panel, analysis of the expression of pART and AKT by Western blotting. Bottom panel, analysis the expression of VEGF-A by ELISA in the CM. e) HuVECs were treated with rhIGFBP-2 together with anti-αVβ3 integrin antibody or anti-mouse IgG as control. Top panel, analysis of expression of pAKT and AKT by Western blotting. Bottom panel, analysis of expression of VEGF-A by ELISA in the CM. f & g) HuVECs were treated as in “e” and CM was used to analyze tube formation […] and neovascularization in CAM (g). […]

IGFBP-2 = IGFBP-2 ELISA in conditioned media of FM-516 cells infected with Ad.5/3-mda-9; settings: Ad.5/3-mda-9, 2.5 μM inhibitor, 12 or 24 h (FIG. 4D)

## O=c1cc(N2CCOCC2)oc2c(-c3ccccc3)cccc12 [LY294002]
HIF-1α
  mda-9/syntenin-induced augmentation of HIF-1α expression: significantly abrogated
VEGF-A
  rhIGFBP-2-induced VEGF-A expression: significantly inhibited
IGFBP-2
  mda-9/syntenin-induced augmentation of IGFBP-2 expression: significantly abrogated
